Source: paper PMC12533200
No constants are given. Whether binding was seen depends on the method and setting. Binding seen in cells or lysates may run through a third protein. Some entries that bind do so weakly or less than the wild type. For some of these results: Where a sequence is shown, tags or fusion partners need not be part of it.

By UniProt entry, the sequences of proteins in these tests, tags left out. Where a name states a change or a piece, a line headed by the entry shows the natural chain unless it says otherwise.
UniProt A5YKK6: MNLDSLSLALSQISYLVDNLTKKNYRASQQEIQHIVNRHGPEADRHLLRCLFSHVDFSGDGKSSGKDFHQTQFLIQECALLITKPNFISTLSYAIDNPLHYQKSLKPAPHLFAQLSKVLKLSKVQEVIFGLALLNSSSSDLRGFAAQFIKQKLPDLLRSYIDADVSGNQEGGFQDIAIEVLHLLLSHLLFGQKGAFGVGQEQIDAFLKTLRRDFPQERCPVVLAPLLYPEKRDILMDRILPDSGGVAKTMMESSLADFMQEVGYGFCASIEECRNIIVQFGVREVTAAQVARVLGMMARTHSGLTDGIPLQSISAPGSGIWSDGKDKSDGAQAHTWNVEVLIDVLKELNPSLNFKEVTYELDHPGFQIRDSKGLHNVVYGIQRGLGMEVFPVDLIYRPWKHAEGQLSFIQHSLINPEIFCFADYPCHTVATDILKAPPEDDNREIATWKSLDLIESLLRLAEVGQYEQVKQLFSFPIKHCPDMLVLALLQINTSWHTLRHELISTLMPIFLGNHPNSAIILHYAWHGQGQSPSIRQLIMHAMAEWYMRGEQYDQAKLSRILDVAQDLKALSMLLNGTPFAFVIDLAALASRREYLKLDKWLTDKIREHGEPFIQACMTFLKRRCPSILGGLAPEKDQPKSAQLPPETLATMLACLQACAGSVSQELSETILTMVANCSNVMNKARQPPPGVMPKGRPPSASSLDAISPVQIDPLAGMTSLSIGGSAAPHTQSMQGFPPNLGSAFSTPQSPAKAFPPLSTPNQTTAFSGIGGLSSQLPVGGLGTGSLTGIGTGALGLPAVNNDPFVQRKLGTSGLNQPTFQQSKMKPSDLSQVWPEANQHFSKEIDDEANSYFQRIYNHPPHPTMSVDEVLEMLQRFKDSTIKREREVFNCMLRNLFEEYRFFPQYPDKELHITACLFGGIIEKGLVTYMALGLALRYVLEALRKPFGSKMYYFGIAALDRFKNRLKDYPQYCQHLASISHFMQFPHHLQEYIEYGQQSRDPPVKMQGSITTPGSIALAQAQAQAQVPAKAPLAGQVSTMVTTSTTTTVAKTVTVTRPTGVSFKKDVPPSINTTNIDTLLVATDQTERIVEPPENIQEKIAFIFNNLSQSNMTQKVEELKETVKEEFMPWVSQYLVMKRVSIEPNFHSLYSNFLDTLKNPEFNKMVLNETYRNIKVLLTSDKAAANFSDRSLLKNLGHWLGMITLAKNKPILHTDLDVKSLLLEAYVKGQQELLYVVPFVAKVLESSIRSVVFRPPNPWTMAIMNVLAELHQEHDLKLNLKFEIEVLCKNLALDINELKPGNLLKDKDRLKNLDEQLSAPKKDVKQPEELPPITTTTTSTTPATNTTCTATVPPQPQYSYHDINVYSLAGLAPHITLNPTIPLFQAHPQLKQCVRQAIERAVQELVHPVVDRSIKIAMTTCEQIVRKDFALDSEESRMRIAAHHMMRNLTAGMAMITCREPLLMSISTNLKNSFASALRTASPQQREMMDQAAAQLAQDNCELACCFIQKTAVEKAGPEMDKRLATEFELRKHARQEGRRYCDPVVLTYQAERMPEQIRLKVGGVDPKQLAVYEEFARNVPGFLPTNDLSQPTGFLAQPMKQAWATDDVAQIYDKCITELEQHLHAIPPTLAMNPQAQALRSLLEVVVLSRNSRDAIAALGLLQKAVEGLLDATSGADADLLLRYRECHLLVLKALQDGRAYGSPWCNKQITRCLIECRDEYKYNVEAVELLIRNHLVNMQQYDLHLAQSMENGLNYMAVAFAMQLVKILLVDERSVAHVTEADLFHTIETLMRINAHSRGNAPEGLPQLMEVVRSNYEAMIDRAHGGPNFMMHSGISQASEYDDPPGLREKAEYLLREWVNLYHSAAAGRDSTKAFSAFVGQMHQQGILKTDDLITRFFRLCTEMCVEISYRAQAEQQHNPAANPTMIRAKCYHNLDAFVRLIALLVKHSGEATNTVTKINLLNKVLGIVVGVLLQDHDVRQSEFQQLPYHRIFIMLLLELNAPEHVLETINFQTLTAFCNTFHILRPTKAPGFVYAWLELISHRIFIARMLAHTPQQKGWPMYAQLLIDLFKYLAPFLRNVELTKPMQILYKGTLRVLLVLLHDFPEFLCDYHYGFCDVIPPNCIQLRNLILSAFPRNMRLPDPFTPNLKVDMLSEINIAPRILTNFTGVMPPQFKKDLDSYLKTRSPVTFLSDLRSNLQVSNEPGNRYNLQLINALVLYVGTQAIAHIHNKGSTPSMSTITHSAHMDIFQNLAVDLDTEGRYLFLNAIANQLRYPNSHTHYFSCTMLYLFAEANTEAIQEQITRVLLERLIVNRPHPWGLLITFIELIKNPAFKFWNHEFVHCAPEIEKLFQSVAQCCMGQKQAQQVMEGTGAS
UniProt Q00987: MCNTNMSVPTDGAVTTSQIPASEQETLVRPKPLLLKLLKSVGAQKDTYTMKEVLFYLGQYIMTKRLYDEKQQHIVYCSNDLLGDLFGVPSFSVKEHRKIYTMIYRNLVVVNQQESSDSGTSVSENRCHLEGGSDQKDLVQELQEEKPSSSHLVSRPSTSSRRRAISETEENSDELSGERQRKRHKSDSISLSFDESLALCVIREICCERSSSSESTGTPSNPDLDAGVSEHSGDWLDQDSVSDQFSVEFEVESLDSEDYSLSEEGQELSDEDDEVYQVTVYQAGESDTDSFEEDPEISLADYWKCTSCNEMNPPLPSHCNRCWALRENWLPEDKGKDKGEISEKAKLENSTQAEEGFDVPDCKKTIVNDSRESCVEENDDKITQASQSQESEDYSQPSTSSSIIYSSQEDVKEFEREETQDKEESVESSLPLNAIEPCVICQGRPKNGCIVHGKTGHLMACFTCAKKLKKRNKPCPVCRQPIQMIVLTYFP

Key:
[1] = target: T1, Lethal(2) giant larvae protein homolog 2 (LLGL2), endogenous (human (endogenous in SW620 and RKO)) (UniProt Q6P1M3); assay: co-IP; endogenous proteins in SW620 or RKO cells; lysed in IP buffer (50 mM Tris-HCl pH 8.0, 150 mM NaCl, 10 mM KCl, 0.5% NP-40, 10% glycerol, 1 mM EDTA, protease inhibitors); anti-LLGL2 or anti-MDM2 versus IgG control, Protein A/G magnetic beads, 4 °C overnight, six washes with PBST, western blot
T1 sequence: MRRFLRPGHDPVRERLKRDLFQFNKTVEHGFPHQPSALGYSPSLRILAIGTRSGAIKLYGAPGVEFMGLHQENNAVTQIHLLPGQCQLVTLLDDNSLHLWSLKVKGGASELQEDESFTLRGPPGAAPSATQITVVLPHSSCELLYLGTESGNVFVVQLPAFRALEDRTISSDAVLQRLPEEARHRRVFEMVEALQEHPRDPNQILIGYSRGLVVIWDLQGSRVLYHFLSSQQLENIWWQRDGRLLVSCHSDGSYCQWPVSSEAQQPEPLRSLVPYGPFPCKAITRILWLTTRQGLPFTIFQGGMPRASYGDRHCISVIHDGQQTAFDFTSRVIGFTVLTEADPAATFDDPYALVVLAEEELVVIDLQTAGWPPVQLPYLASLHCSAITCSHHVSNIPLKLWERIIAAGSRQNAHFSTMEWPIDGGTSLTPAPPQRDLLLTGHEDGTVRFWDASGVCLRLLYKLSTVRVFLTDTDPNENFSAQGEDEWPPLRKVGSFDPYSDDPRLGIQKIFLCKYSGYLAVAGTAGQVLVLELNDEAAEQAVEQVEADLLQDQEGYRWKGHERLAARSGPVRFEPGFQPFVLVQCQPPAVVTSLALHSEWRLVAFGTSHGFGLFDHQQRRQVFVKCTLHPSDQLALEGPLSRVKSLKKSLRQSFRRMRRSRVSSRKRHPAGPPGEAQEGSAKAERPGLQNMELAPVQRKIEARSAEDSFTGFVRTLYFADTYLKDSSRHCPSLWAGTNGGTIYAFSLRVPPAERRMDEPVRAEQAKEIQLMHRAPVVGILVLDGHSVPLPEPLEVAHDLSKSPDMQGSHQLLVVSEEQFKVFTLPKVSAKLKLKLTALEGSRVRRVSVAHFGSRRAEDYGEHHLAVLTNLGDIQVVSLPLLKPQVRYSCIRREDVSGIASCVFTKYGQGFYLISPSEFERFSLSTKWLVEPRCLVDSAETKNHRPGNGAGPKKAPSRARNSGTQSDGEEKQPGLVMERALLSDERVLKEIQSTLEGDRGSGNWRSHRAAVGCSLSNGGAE

Flag‐LLGL2 = target: T2, Flag‐LLGL2 (UniProt Q6P1M3); assay: co-IP; exogenous, tagged proteins in transfected HEK293T or SW620 cells; anti-Flag or anti-Myc, Protein A/G magnetic beads, 4 °C overnight, six washes with PBST, western blot
T2 sequence: T1 sequence

Row | Substance | binding [1] | binding (Flag‐LLGL2)
1 | CCR4‐NOT transcription complex subunit 1 (CNOT1), endogenous (from UniProt A5YKK6 1-2376) | binds | 
2 | MDM2, endogenous (from UniProt Q00987 1-491) | binds | 
3 | Myc‐C464A (enzymatic activity mutant C464A of MDM2) (from UniProt Q00987 1-491) |  | binds
4 | Myc‐MDM2 (from UniProt Q00987 1-491) |  | binds
